Test results: the supplement of paper PMC10849652
Some of the results follow.

Chains of the proteins cited; added tags and fusions are not shown. Lines headed by an entry give the natural chain unless they say otherwise; changes in a name come on top.
UniProt O15460: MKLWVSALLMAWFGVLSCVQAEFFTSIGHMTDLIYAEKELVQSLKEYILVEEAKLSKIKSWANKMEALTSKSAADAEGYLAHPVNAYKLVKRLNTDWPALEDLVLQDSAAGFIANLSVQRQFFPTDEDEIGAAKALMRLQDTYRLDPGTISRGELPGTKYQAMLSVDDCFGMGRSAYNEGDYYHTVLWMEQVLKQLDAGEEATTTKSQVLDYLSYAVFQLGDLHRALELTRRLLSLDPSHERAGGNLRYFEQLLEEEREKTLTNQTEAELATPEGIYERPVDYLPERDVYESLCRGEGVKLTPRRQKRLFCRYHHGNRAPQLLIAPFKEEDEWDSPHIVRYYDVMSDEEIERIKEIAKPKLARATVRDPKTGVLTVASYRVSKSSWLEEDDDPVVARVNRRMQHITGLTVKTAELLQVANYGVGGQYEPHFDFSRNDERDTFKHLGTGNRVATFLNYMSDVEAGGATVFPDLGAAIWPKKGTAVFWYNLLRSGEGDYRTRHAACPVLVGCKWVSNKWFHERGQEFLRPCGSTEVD
UniProt Q8N543: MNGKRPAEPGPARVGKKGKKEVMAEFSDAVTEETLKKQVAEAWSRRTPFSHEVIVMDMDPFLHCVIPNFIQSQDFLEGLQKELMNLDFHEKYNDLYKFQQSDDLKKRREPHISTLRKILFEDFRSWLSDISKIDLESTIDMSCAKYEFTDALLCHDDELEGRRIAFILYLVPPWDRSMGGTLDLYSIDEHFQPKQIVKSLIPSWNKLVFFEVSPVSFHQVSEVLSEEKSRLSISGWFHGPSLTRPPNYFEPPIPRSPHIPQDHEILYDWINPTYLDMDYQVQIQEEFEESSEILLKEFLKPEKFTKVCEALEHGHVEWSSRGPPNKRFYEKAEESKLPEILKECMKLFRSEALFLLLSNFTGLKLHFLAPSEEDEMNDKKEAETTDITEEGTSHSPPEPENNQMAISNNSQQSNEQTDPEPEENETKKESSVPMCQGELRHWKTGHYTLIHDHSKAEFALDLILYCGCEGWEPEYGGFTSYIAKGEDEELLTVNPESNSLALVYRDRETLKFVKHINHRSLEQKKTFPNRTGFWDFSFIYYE
UniProt Q9BPZ3: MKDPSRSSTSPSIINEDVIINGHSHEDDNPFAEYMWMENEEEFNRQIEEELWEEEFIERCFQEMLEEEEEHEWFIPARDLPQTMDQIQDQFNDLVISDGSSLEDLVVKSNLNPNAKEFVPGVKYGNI
UniProt Q32P28: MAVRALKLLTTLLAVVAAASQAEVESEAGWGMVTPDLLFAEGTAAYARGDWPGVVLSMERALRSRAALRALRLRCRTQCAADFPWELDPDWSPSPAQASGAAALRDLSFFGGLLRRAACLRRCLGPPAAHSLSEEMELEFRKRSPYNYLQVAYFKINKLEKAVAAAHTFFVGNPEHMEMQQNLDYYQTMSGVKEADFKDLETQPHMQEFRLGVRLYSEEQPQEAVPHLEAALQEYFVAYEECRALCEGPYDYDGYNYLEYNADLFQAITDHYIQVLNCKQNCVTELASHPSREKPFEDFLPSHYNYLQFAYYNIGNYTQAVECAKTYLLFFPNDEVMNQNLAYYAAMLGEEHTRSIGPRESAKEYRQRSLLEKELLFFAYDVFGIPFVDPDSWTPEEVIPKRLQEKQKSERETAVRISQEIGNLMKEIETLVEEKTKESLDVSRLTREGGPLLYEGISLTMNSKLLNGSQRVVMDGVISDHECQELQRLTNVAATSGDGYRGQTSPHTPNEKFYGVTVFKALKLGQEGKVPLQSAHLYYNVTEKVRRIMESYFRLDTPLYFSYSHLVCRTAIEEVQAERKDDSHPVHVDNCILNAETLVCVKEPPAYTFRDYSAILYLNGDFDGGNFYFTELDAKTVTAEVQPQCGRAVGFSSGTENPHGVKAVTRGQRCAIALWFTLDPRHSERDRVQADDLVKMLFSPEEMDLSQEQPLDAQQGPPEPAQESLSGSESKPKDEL
UniProt Q6VY07, whole entry, looked up: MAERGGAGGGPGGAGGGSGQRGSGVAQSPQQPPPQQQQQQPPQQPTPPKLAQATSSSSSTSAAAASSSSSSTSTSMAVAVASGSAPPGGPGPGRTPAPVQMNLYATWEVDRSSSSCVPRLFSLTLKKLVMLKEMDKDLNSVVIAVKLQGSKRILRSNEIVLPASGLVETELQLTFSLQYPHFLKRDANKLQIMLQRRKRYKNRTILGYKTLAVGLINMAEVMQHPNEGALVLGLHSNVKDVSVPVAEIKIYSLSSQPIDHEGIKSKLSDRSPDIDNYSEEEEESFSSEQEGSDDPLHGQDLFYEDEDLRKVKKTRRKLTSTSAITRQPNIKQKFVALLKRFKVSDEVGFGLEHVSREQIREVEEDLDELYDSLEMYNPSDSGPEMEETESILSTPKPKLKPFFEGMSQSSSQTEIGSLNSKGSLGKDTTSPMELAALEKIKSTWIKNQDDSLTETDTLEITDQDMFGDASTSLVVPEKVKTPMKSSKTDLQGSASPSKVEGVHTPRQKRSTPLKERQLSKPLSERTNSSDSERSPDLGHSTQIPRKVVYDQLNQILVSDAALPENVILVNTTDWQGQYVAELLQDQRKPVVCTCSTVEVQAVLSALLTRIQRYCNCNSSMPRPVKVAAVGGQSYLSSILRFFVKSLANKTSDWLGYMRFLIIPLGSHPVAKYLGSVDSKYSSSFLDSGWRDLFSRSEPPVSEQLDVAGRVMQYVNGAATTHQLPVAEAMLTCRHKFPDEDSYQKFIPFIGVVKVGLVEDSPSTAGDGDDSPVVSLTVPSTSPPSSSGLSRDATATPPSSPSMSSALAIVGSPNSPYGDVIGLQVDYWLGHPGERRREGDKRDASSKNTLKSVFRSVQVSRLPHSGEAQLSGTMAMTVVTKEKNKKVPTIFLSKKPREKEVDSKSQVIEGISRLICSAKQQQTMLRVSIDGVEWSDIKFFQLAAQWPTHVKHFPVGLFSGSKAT
UniProt P04181: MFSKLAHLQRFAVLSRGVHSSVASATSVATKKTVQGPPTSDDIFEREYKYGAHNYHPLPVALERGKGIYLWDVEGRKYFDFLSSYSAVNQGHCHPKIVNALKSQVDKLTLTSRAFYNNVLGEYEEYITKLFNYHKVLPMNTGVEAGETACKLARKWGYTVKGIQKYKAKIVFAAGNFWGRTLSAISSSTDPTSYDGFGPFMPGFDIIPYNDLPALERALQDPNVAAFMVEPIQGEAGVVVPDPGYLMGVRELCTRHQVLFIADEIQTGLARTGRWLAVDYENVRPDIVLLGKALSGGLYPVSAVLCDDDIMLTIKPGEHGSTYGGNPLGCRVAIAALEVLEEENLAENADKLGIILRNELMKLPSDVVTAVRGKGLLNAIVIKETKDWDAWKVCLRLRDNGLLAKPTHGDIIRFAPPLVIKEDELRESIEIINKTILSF
UniProt P43034: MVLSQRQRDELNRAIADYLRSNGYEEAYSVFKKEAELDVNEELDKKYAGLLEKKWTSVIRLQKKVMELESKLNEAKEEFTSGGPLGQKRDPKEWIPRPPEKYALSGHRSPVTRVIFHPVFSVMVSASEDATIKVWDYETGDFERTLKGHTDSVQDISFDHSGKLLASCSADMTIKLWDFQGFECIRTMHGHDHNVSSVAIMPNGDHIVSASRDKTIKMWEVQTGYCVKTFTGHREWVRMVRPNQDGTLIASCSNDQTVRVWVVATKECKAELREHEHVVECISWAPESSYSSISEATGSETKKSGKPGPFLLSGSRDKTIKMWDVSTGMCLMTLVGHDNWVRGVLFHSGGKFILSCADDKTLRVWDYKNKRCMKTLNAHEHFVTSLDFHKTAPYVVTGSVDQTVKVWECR
UniProt P22059, whole entry, looked up: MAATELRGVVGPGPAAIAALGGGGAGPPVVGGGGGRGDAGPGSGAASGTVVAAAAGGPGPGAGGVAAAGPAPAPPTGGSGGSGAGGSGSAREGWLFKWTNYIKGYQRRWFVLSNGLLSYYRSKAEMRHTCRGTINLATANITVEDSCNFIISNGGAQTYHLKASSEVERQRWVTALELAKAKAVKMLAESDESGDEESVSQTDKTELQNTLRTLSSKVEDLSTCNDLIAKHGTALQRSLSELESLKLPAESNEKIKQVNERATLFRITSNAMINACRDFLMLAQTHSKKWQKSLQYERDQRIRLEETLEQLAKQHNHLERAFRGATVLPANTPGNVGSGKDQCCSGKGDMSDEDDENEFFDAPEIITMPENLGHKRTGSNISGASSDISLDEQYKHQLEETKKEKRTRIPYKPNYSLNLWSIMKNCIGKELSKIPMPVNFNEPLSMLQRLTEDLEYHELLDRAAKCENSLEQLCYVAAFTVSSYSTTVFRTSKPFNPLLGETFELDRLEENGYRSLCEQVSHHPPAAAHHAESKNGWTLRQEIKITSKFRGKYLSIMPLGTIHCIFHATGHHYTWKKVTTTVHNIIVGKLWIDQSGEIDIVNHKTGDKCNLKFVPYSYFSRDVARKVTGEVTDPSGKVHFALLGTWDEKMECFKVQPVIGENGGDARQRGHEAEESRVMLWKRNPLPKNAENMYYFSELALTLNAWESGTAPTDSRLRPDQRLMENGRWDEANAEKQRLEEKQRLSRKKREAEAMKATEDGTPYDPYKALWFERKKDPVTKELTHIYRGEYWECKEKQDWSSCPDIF
UniProt Q92621: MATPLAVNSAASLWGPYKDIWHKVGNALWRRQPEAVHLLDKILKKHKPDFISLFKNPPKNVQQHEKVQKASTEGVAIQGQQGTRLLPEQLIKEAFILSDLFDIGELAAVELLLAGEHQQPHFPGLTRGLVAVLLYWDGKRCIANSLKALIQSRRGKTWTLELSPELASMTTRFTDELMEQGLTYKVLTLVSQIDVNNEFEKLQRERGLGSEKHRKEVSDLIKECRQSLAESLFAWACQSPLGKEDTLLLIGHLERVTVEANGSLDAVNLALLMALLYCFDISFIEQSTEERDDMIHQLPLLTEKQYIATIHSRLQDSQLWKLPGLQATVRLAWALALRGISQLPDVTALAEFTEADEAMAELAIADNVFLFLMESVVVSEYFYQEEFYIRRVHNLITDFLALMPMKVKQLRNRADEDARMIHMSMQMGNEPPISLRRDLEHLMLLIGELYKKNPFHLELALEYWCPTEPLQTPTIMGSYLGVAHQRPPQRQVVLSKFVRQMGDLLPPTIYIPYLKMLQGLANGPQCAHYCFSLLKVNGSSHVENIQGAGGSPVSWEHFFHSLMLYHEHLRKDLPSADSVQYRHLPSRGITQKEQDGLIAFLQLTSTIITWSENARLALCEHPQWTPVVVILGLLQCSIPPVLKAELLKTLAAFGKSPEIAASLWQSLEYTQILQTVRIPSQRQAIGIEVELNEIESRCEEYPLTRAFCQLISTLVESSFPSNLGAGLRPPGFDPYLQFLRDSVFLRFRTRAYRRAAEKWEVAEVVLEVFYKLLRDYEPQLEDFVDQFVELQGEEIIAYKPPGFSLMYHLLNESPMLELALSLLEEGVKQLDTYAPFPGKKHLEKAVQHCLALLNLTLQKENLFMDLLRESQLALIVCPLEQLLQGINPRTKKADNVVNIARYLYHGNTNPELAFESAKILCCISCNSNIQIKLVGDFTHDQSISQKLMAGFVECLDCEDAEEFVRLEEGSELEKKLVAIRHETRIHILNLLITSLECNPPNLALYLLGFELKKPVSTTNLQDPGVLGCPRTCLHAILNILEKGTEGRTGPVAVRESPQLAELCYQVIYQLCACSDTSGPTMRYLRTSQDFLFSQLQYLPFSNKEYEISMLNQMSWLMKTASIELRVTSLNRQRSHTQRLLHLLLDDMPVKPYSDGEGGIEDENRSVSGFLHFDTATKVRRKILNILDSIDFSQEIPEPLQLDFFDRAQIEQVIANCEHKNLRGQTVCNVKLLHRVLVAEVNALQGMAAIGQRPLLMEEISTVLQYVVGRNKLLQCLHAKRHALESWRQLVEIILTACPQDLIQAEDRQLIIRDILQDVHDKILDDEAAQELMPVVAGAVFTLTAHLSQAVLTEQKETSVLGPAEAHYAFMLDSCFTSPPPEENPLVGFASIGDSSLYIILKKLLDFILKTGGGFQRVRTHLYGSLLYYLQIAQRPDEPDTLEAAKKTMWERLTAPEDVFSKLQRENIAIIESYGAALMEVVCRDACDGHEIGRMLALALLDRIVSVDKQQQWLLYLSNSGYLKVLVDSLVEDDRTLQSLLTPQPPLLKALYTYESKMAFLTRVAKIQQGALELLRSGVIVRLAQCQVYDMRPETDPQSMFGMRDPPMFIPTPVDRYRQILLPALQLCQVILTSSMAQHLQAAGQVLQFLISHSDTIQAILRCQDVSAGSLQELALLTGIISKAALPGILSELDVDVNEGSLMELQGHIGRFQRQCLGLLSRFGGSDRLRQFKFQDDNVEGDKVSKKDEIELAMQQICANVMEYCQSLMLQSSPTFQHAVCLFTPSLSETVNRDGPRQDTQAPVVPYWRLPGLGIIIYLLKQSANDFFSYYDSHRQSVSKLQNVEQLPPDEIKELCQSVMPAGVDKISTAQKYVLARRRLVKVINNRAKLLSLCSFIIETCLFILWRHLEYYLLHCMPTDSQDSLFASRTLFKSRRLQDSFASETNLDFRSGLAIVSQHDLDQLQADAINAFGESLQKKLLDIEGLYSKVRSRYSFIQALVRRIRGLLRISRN

Columns and labels:
Assay in all cases: log2 fold change, soluble protein after heating vs DMSO (PISA); higher = thermal stabilisation; K562 lysate, 10 uM; active = over 0.2 and 3.5 SD of the protein, either way, in both replicates (recomputed)
[1] = compound: C1=CC=C(C=C1)[C@H](COC2=CC3=C(C=C2)NC(=O)N3)NC(=O)C4=CC=CN(C4=O)CC5=CC(=C(C=C5)F)F
Method in brief: (§1)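 The values are log-two fold changes in thermal stability compared with solvent controls and come from duplicates. They were obtained by TMTpro 16plex LC-MS/MS, with channel sums equalised, on the supernatant after 21,000xg for 90 min. That supernatant came from crude K562 extract at 1 mg/mL protein treated with 10 μM compound for 30 min, heated for 3 min across 48°C-58°C, pooled and brought to 0.5% NP-40 at 4°C.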

[2] = compound: CC1=C(SC2=C1C(=N[C@H](C3=NN=C(N32)C)CC(=O)N)C4=CC=C(C=C4)Cl)C
Method in brief: as §1

[3] = compound: CC1=C2C(=CC=C1)N=C(N(C2=O)C3=CC=CC=C3C)CN4C=NC5=C(N=CN=C54)N
Method in brief: as §1

[4] = compound: Cc1sc2c(c1C)C(c1ccc(Cl)cc1)=N[C@@H](CC(=O)OC(C)(C)C)c1nnc(C)n1-2
Method in brief: as §1

[5] = compound: c1ccc([C@@H]2C[C@H]2NC2CCNCC2)cc1
Method in brief: as §1

Measured: log2 fold change

NUP93 (UniProt Q8N1F7)
inactive: [1] -0.054 | [2] -0.017 | [3] -0.006 | [4] 0.007 | [5] 0.031

OBI1 (UniProt Q5W0B1)
inactive: [1] 0.066 | [2] -0.088 | [3] 0.119 | [4] -0.059 | [5] 0.02

PA2G4 (UniProt Q9UQ80)
inactive: [1] -0.004 | [2] 0.006 | [3] -0.007 | [4] 0.027 | [5] 0.049

P4HA2 (UniProt O15460)
inactive: [1] 0.013 | [2] 0.021 | [3] 0.004 | [4] -0.018 | [5] 0.014

P4HB (UniProt P07237)
inactive: [1] 0.049 | [2] -0.008 | [3] -0.003 | [4] -0.003 | [5] -0.002

OPLAH (UniProt O14841)
inactive: [1] -0.02 | [2] -0.025 | [3] -0.01 | [4] 0.086 | [5] 0.031

OGFOD1 (UniProt Q8N543)
inactive: [1] 0.004 | [2] 0.02 | [3] -0.011 | [4] 0.044 | [5] 0

NUS1 (UniProt Q96E22)
inactive: [1] -0.029 | [2] 0.035 | [3] -0.028 | [4] 0.099 | [5] 0.012

OSBPL2 (UniProt Q9H1P3)
inactive: [1] -0.004 | [2] 0.108 | [3] -0.036 | [4] 0.006 | [5] -0.025

OXSM (UniProt Q9NWU1)
inactive: [1] 0.061 | [2] 0.031 | [3] -0.019 | [4] -0.019 | [5] -0.016

PARG (UniProt Q86W56)
inactive: [1] -0.011 | [2] -0.006 | [3] -0.005 | [4] -0.004 | [5] 0.091

PARL (UniProt Q9H300)
inactive: [1] -0.052 | [2] -0.026 | [3] -0.008 | [4] 0.043 | [5] 0

PAK1IP1 (UniProt Q9NWT1)
inactive: [1] -0.011 | [2] 0.023 | [3] -0.068 | [4] -0.034 | [5] 0.026

PAIP2 (UniProt Q9BPZ3)
inactive: [1] -0.009 | [2] 0.042 | [3] 0.03 | [4] 0.021 | [5] 0.036

PAICS (UniProt P22234)
inactive: [1] 0 | [2] -0.01 | [3] 0.004 | [4] 0.001 | [5] -0.044

P4HA1 (UniProt P13674)
inactive: [1] 0.001 | [2] 0.01 | [3] 0.002 | [4] 0.018 | [5] 0.015

PAFAH2 (UniProt Q99487)
inactive: [1] -0.032 | [2] 0.087 | [3] -0.036 | [4] -0.068 | [5] -0.034

PALMD (UniProt Q9NP74)
inactive: [1] 0.13 | [2] -0.053 | [3] -0.025 | [4] -0.008 | [5] -0.041

ODF2 (UniProt Q5BJF6)
inactive: [1] 0.094 | [2] -0.253 | [3] 0.044 | [4] 0 | [5] -0.153

Three entries drawn at random from the list so far:
NUP93 (UniProt Q8N1F7)
inactive: [1] -0.054 | [2] -0.017 | [3] -0.006 | [4] 0.007 | [5] 0.031

PALMD (UniProt Q9NP74)
inactive: [1] 0.13 | [2] -0.053 | [3] -0.025 | [4] -0.008 | [5] -0.041

OGFOD1 (UniProt Q8N543)
inactive: [1] 0.004 | [2] 0.02 | [3] -0.011 | [4] 0.044 | [5] 0

The results go on:

PACSIN1 (UniProt Q9BY11)
inactive: [1] -0.013 | [2] -0.069 | [3] 0.021 | [4] -0.012 | [5] -0.047

PANK1 (UniProt Q8TE04)
inactive: [1] -0.071 | [2] -0.056 | [3] 0.178 | [4] -0.077 | [5] 0.076

PANK3 (UniProt Q9H999)
inactive: [1] 0.079 | [2] 0 | [3] 0.023 | [4] -0.054 | [5] -0.061

OPTN (UniProt Q96CV9)
inactive: [1] 0.041 | [2] 0.01 | [3] -0.031 | [4] -0.012 | [5] -0.042

OXA1L (UniProt Q15070)
inactive: [1] -0.038 | [2] 0.037 | [3] 0.005 | [4] 0.016 | [5] -0.007

P3H1 (UniProt Q32P28)
inactive: [1] 0.032 | [2] -0.016 | [3] -0.025 | [4] -0.006 | [5] -0.011

NUTF2 (UniProt P61970)
inactive: [1] -0.085 | [2] -0.031 | [3] -0.009 | [4] -0.011 | [5] 0.009

ORC3 isoform 2 (UniProt Q9UBD5)
inactive: [1] 0.005 | [2] -0.031 | [3] 0.014 | [4] 0.021 | [5] 0.047

NUP37 (UniProt Q8NFH4)
inactive: [1] 0.029 | [2] -0.005 | [3] 0.002 | [4] 0.032 | [5] -0.009

NUP62 (UniProt P37198)
inactive: [1] -0.103 | [2] -0.047 | [3] -0.015 | [4] -0.003 | [5] -0.017

PAAT (UniProt Q9H8K7)
inactive: [1] 0.112 | [2] 0.017 | [3] 0.056 | [4] -0.01 | [5] -0.028

PALM3 (UniProt A6NDB9)
inactive: [1] 0.023 | [2] 0.004 | [3] 0.03 | [4] -0.01 | [5] -0.017

PAGR1 (UniProt Q9BTK6)
inactive: [1] -0.037 | [2] 0.065 | [3] 0.011 | [4] -0.011 | [5] 0.042

OXCT1 (UniProt P55809)
inactive: [1] 0.009 | [2] 0.04 | [3] 0.013 | [4] 0.017 | [5] 0.035

P2RX4 isoform 2 (UniProt Q99571)
inactive: [1] 0.057 | [2] 0.079 | [3] 0.044 | [4] 0.036 | [5] -0.069

ORMDL1 (UniProt Q9P0S3)
inactive: [1] -0.238 | [2] -0.171 | [3] -0.022 | [4] -0.01 | [5] 0.083

PAICS (UniProt E9PBS1)
inactive: [1] -0.321 | [2] 0.058 | [3] 0.01 | [4] 0.072 | [5] 0.169

OCRL (UniProt Q01968)
inactive: [1] 0.018 | [2] 0.056 | [3] 0.003 | [4] 0.013 | [5] -0.017

OCIAD1 (UniProt Q9NX40)
inactive: [1] 0.012 | [2] -0.013 | [3] 0.005 | [4] 0.023 | [5] 0.021

OGDH (UniProt Q02218)
inactive: [1] -0.008 | [2] 0.003 | [3] -0.031 | [4] 0.056 | [5] -0.003

PACS1 (UniProt Q6VY07)
inactive: [1] -0.013 | [2] 0.023 | [3] 0.041 | [4] -0.02 | [5] -0.006

OAT (UniProt P04181)
inactive: [1] 0.029 | [2] 0.031 | [3] 0.038 | [4] 0.034 | [5] -0.018

NUP98 (UniProt P52948)
inactive: [1] -0.018 | [2] -0.03 | [3] 0.037 | [4] 0.052 | [5] -0.003

ORC2 (UniProt Q13416)
inactive: [1] -0.052 | [2] -0.011 | [3] -0.012 | [4] 0.025 | [5] 0.044

OXNAD1 (UniProt Q96HP4)
inactive: [1] -0.066 | [2] -0.063 | [3] 0.005 | [4] 0.035 | [5] -0.008

OSBPL8 (UniProt Q9BZF1)
inactive: [1] -0.138 | [2] 0.064 | [3] 0.042 | [4] -0.038 | [5] 0.057

NUP54 (UniProt Q7Z3B4)
inactive: [1] -0.006 | [2] 0.004 | [3] 0.014 | [4] -0.03 | [5] -0.048

NUP50 (UniProt Q9UKX7)
inactive: [1] 0.034 | [2] -0.019 | [3] 0.022 | [4] -0.043 | [5] -0.064

PAFAH1B1 (UniProt P43034)
inactive: [1] -0.008 | [2] -0.02 | [3] -0.008 | [4] 0.024 | [5] 0.03

PACC1 (UniProt Q9H813)
inactive: [1] 0.078 | [2] -0.057 | [3] 0.222 | [4] -0.097 | [5] 0.002

OSBP (UniProt P22059)
inactive: [1] 0.007 | [2] 0.048 | [3] 0.036 | [4] -0.009 | [5] 0.039

PARD3 (UniProt Q8TEW0)
inactive: [1] 0.078 | [2] 0.063 | [3] -0.028 | [4] 0.09 | [5] -0.024

NUP205 (UniProt Q92621)
inactive: [1] -0.042 | [2] -0.019 | [3] 0.045 | [4] 0.006 | [5] -0.001

PABPC4 isoform 3 (UniProt Q13310)
inactive: [1] -0.033 | [2] 0.017 | [3] -0.002 | [4] 0.008 | [5] 0.041
